# Measured values as given in PubChem BioAssay AID1508600 (Functional Genomics Laboratory (NCATS/FGL), 2020).
# The whole screen tested about 53,000 sequences, of which about 3,700 (7%) were called active.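 Rule for the calls: active = gene knockdowns whose robust z-score for IL-1 alpha signal is at least 2 or at most -2, so actives lie on both sides; inactive = the rest.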 Some of the results follow.
# Assay: Components of the Cytosolic LPS Sensing Pathway: Gene Identification via Genome-wide siRNA Screen;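 note: robust z of the log signal after scaling to non-targeting control siRNA wells of the plate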
# Conditions: RAW264.7 macrophages, IL-1a HTRF, actives lie on both sides, screened at 100 nM (by protocol), cells primed 5 h with Pam3CSK4 first
# Procedure, shortened: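 RAW264.7 mouse macrophages reverse-transfected with single siRNAs (100 nM final) for 48h, primed with Pam3CSK4 for 5 hours, then transfected with LipidA for 24 hour. Supernatant IL-1a read by HTRF; values normalized to negative-control median, log-transformed robust z-scores.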
row,Sequence,z-score
1,GGAAAAAAAGGAGUGGGCATT against Klra6,inactive: -0.811
2,GGGUUAUGCUGUCUUGGUGTT against Tmem50b,inactive: -0.0931
3,GGACUUUGAAAAAGAUGCATT against Fkbp7,inactive: 1.21
4,GCCUUUAUACUAGCAGCCATT against Olfr827,inactive: -0.434
5,GGAUCGUGUGGAACACCUCTT against Mtss2,inactive: 0.761
6,CCGUAUCGAUGUGACAUAUTT against Zfp94,inactive: -0.736
7,GGUCCAGAAGAAAUAAACATT against Kcnn1,inactive: -0.375
8,CCUGUGCUCUGAGUUUGGCTT against Tmem270,inactive: 0.00319
9,CCACUAAUCGAGUUGGUGCTT against Pigf,inactive: -0.447
10,GAACGGGCAUAUGUUCAACTT against Mgst3,inactive: 1.94
11,GGAAAAGAAGAGGAAAUUCTT against Smarce1,inactive: -1.26
12,GGCAUUCCUACAGUUCAGATT against Mrpl46,inactive: -0.144
13,GGAGAAGGUAGUUCUGAAATT against Slc7a11,inactive: -0.349
14,GGCCCAAACUUACAGCUGUTT against Ptges2,inactive: -0.255
15,CCUACUUGACGAAGGCCUATT against Ndufb10,inactive: 0.903
16,GGAGCUUACAUGGUCCCUATT against Prss37,inactive: -0.238
17,CCAUAUAAGGCACAGUUUGTT against Ergic1,inactive: 1.02
18,GGUAGCAAAUCCAACAAGATT against Slamf1,inactive: 0.226
19,GGUUCUUCAUACAAAUUACTT against S1pr5,inactive: 0.83
20,CCUUUUCACAGAGAGCUGCTT against Tex264,inactive: -1.57
21,CCCGGCCACUGUUAUGAGATT against Wdr83os,inactive: 0.798
22,CUACAGUGGCAAUAAUAUUTT against Rpl30,inactive: 0.425

row,Sequence,z-score
1,GGAAGACAGUAGGAAGAAATT against Eif2s2,inactive: 0.721
2,GGCAUAUCAUUUGUAGGAUTT against Olfr73,inactive: -0.0852
3,GGCUGUCUCCGAACACUAUTT against Josd1,inactive: -0.594
4,GGUCUUAAUUCUGAAGGACTT against Chn1,inactive: -0.207
5,GGCUUGAUUGCAUCUUUAUTT against Ebpl,inactive: -0.765
6,GGUUCAUCUCAUCUCAAGUTT against Mfsd13a,inactive: -1.47
7,GCAACUACCCUCUAAAGUCTT against Man1b1,inactive: 0.32
8,GCCAGUGCACUCCUCUUUUTT against Apip,inactive: -0.177
9,CCGGCAGACCUGUGACAUUTT against Rgs14,inactive: 0.0166
10,GUGAGACCAAGUUACAGGATT against Olfr1504,inactive: 1.5
11,GGCUGGUACUCCAUUUUAGTT against Neil2,inactive: 0.0451
12,GGCUUUAGCUAGUGCUAGGTT against Marveld1,inactive: -0.395
13,GCUCCCUAACAGUUGUCUATT against Mtmr14,inactive: -0.467
14,GCGAGUUUAAAAGCACACUTT against Trmt44,inactive: 0.376
15,GGCAUCAAAAAGCAGACAATT against Erich2,inactive: -1.98
16,GACCAACCCUCACUAAGCUTT against Tcstv3,inactive: -0.364
17,CGUACAUGUCACCUGCUAATT against Acot13,inactive: 1.69
18,CCCUUGGUUAUGGAGAAAGTT against Mcoln2,inactive: -0.0392
19,GGCAGCUGCUGACUUGAUGTT against Gng2,inactive: 0.133
20,GGGUAGGAUUGAAAAGUUUTT against Trh,inactive: -1.24
21,CCCUUGCUUGUCGGAAUCUTT against Chchd7,inactive: 1.11
22,GCAACCUGCAGGCAGUAACTT against Nolc1,inactive: 0.207

# Nothing new here: entries from further up.
row,Sequence,z-score
12,GGCAUUCCUACAGUUCAGATT against Mrpl46,inactive: -0.144
13,GGAGAAGGUAGUUCUGAAATT against Slc7a11,inactive: -0.349
14,GGCCCAAACUUACAGCUGUTT against Ptges2,inactive: -0.255
15,CCUACUUGACGAAGGCCUATT against Ndufb10,inactive: 0.903
16,GGAGCUUACAUGGUCCCUATT against Prss37,inactive: -0.238
17,CCAUAUAAGGCACAGUUUGTT against Ergic1,inactive: 1.02
18,GGUAGCAAAUCCAACAAGATT against Slamf1,inactive: 0.226
19,GGUUCUUCAUACAAAUUACTT against S1pr5,inactive: 0.83
20,CCUUUUCACAGAGAGCUGCTT against Tex264,inactive: -1.57
21,CCCGGCCACUGUUAUGAGATT against Wdr83os,inactive: 0.798
22,CUACAGUGGCAAUAAUAUUTT against Rpl30,inactive: 0.425
1,GGAAGACAGUAGGAAGAAATT against Eif2s2,inactive: 0.721
2,GGCAUAUCAUUUGUAGGAUTT against Olfr73,inactive: -0.0852
3,GGCUGUCUCCGAACACUAUTT against Josd1,inactive: -0.594
4,GGUCUUAAUUCUGAAGGACTT against Chn1,inactive: -0.207
5,GGCUUGAUUGCAUCUUUAUTT against Ebpl,inactive: -0.765
6,GGUUCAUCUCAUCUCAAGUTT against Mfsd13a,inactive: -1.47
7,GCAACUACCCUCUAAAGUCTT against Man1b1,inactive: 0.32
8,GCCAGUGCACUCCUCUUUUTT against Apip,inactive: -0.177
9,CCGGCAGACCUGUGACAUUTT against Rgs14,inactive: 0.0166
10,GUGAGACCAAGUUACAGGATT against Olfr1504,inactive: 1.5
11,GGCUGGUACUCCAUUUUAGTT against Neil2,inactive: 0.0451
12,GGCUUUAGCUAGUGCUAGGTT against Marveld1,inactive: -0.395
13,GCUCCCUAACAGUUGUCUATT against Mtmr14,inactive: -0.467
14,GCGAGUUUAAAAGCACACUTT against Trmt44,inactive: 0.376
15,GGCAUCAAAAAGCAGACAATT against Erich2,inactive: -1.98
16,GACCAACCCUCACUAAGCUTT against Tcstv3,inactive: -0.364
17,CGUACAUGUCACCUGCUAATT against Acot13,inactive: 1.69
18,CCCUUGGUUAUGGAGAAAGTT against Mcoln2,inactive: -0.0392
19,GGCAGCUGCUGACUUGAUGTT against Gng2,inactive: 0.133
20,GGGUAGGAUUGAAAAGUUUTT against Trh,inactive: -1.24

# (listing goes on)

row,Sequence,z-score
1,GGCCCAUAAUUAAAUGUUUTT against Stac2,inactive: 0.438
2,GGAAGAUGACCAAGAAGCUTT against Ddx42,inactive: -0.364
3,GGACCUCAUCUACAGAAUGTT against Tssk1,inactive: 0.878
4,CCUACGUGAUAUCCUUUUATT against Vrk1,inactive: 0.0128
5,GGUGGACGAUUGAAAGUGATT against Lbx2,inactive: 0.825
6,GGCAGGAGAGGCAUCUUUUTT against Arhgap20,inactive: 0.0912
7,GGAAUCCUUGGACCUGAGGTT against Tnni3,active: -2.11
8,CGCUUAGCAAUAUCAUCGATT against Get3,inactive: -0.38
9,CCUAACCAUUGCUUAUAUATT against Stat1,inactive: 1.35
10,GGAGAAUGACAAGAACUGCTT against Acer1,inactive: -0.352
11,GGAUAUUAUGUCUUUGCUATT against Ints2,inactive: 0.499
12,CCUUUUCCAUGCCUACUCCTT against Bag3,inactive: 0.339
13,GCUUUCGGAUGAACUUCGGTT against Gripap1,inactive: 0.577
14,CCCAACAAUCCAACAAUGATT against Gm5444,inactive: 0.286
15,GCGAGAUCUGUCCUUACAGTT against Ildr1,inactive: 0.929
16,GGCUGGAACCCUAAUUUCUTT against Tpo,inactive: 1.32
17,CCAGACAGAAGGGUUAGCUTT against Mrps36,active: -2.03
18,CCUAAGGAAGAUAAACCGGTT against Sh2d7,active: -2.43
19,GGUAAAAAGCGCAGACUUATT against Bms1,inactive: 0.957
20,CCUAGUGAUUAAAGGGAUGTT against Prss43,inactive: 1.19
21,GGAUGCUGAGCUUUCUGACTT against Fchsd1,inactive: 0.476
22,CCUGAGUAACAUUGCCGUGTT against Mgat1,inactive: -0.193

row,Sequence,z-score
1,GGGUGACAGGGCAUGAGAATT against Macroh2a3,inactive: 0.611
2,GGCUUUCUCAUAUAACUCCTT against Mest,inactive: -1.4
3,UCAACUCUUGACUUCGCUGTT against Rhbdd2,inactive: -0.619
4,CCAUCGUCCAAAGUACAUGTT against Rbp4,inactive: -1.39
5,GGAUCUCAGCUUCACUCCUTT against Emc8,inactive: -1.47
6,GGAACCUUAGAUGUUACUUTT against Scara3,inactive: -0.438
7,GGGAGAACUUAGCACGAAUTT against Polr2h,inactive: 0.392
8,GGAUCCACAGAGAAACCCUTT against Gfi1b,inactive: -0.599
9,CCUCUCACACACCAUAACATT against Polm,inactive: -1.67
10,GGAAAACAUAUUUCAGCAGTT against Zfp775,inactive: 1.05
11,CGGAUUAGUAUAAAUGUAGTT against Prss16,inactive: -0.109
12,GGAAUCUGAUACCCAAGGATT against Csl,inactive: -0.555
13,CCAAAGAUGCUGGUAGAUUTT against Olfr1140,inactive: -1.16
14,GGAGGAGGAGGACUUUGAUTT against Gon4l,inactive: -1.49
15,CUCAGUUCUUCUUCUUUUCTT against Olfr12,inactive: 0.852
16,GGAAAAUUGGAACAAUCCATT against Sval2,inactive: -0.796
17,GCAAGCCCUGGAAGAAUUATT against Nat8,active: 2.26
18,CCAAGAAUUACCACUUAUCTT against Phf11a,inactive: 0.191
19,GGAGUGUGAUCAAGUUCAUTT against Eya4,active: 2.16
20,GGAGAUAAAAGUUUCAUCUTT against Kdm4b,inactive: 0.287
21,GGCUUCACAAGGACCUUUGTT against BC024139,inactive: 1.88
22,GCUAUAUGACAACCUCAGCTT against Slamf8,inactive: 0.801

row,Sequence,z-score
1,GGAAGCCUGAAACUCAGCATT against Srpk1,inactive: -1.34
2,GCAAUUAAUAGAAUUAGCCTT against Slc8a1,inactive: -0.0398
3,GGGCUCUUUAUCCUUUCCUTT against Cer1,inactive: 0.227
4,GGAGGAAAGAAUCGAUUUATT against Slc5a4a,inactive: 1.18
5,GCUGAUCAAGGACUAUCGGTT against Ywhaq,inactive: -0.567
6,GGCCAUGGUCAUGGACAUGTT against Itpr3,inactive: -0.466
7,GGCUCAAGUAUGAGAAUGATT against Krt15,inactive: -0.859
8,GGUGUGUUUUAUGUGUCCCTT against Ctif,active: 2.62
9,GGAGAAGCAGGCCUUACAGTT against Clec3b,inactive: 0.333
10,GGAGAAUGGUUCAUAUCUGTT against Trmt44,inactive: -0.849
11,CCAGCUCUGGUUUAUUGAATT against Neurog2,inactive: -1.67
12,GGUGAGCGUGUAGAGAUGCTT against Fbxo45,inactive: 0.787
13,GGAUAUCACAUAGCAUCGGTT against 1700025G04Rik,inactive: -0.742
14,GGACUAUGGAACCUUCACCTT against Sigirr,inactive: -1.6
15,GGAGUAGCAGAGCUUCUGGTT against S100a8,inactive: 0.642
16,CGCGCAUUGUGUUGCACUATT against Olfr1344,inactive: -0.00661
17,GGAAACCUGGCAUAACUUUTT against Pax9,inactive: 1.82
18,GGCUUUGCUCCUGAUAAACTT against Vnn3,inactive: -1.42
19,GGCCAUCGAGGUGAUGUACTT against Tpst2,inactive: -0.993
